Test system: sensitised amphetamine response (hyperactivity) in mice
Assay: Sensitised behavioural response to amphetamine in mice
Format: in vivo, mouse
Conditions: ratio of the ED50 for baseline motility and the ED50 for the sensitised response

| Compound | Therapeutic index |
| --- | --- |
| Cc1cc(N2CCOCC2)cc(C)c1NC(=O)CC1CCCC1 | 2 |
| Cc1cc(N2CCOCC2)cc(C)c1NC(=O)CC(C)(C)C | >1 |
| Cc1nc(N2CCOCC2)nc(C)c1NC(=O)CC1CCCC1 [2-Cyclopentyl-N-(4,6-dimethyl-2-morpholin-4-yl-pyrimidin-5-yl)-acetamide] | 3 |
| COc1cc(N2CCOCC2)cc(C)c1NC(=O)CC1CCCC1 [Compound 2] | 2 |
| Cc1cc(N2CCOCC2)nc(C)c1NC(=O)CC(C)(C)C [Compound 3, N-(2,4-dimethyl-6-morpholin-4-yl-pyridin-3-yl)-3,3-dimethylbutyramide] | 2 |
| CCCCCC(=O)Nc1c(F)cc(N2CCOCC2)cc1F [Hexanoic acid (2,6-difluoro-4-morpholin-4-yl-phenyl)-amide] | >2 |
| CCC(=O)Nc1c(Br)cc(N2CCOCC2)cc1C(F)(F)F [N-(2-Bromo-4-morpholin-4-yl-6-trifluoromethyl-phenyl)-propionamide] | 2 |
| Cc1nc(N2CCOCC2)nc(C)c1NC(=O)Cc1ccc(F)cc1 [N-(4,6-Dimethyl-2-morpholin-4-yl-pyrimidin-5-yl)-2-(4-fluoro-phenyl)-acetamide] | 5 |
| CCOC(=O)Nc1ccc(NCc2c(C)cc(C)cc2C)cc1N [[2-Amino-4-(2,4,6-trimethyl-benzylamino)-phenyl]-carbamic acid ethyl ester] | 3 |
